{
  "source": "PubChem BioAssay (NCATS)",
  "note": "Inconclusive means that the source gave no clear call. Such entries were picked first, then a sample of the others. Where the call is inconclusive, the potency comes from a doubtful curve fit. The source made the active and inactive calls. Calls come from the whole dose curve; as a rule, active = well fitted cell-killing curve with a large enough effect; inconclusive = small, poorly fitted or top-dose-only effect, or effect the other way; inactive = no such curve, though single readings can be large or run the other way. Potency is the fitted concentration of half-maximal effect.",
  "data": [
    {"assay": "Quantitative High-Throughput drug screen in 47 multiple myeloma cell lines against the NCATS MIPE library collection: PCM6_Riken cell viability assay (AID 1919870); note: nearly all actives have a fitted effect of over 30% in size", "details": "CellTiter-Glo ATP, 48 h; series mostly up to 45.8 µM", "source_text": "PI: Beverly A. Mock Ph.D.\nLaboratory of Cancer Biology and Genetics,\nCenter for Cancer Research, National Cancer Institute,\nNational Institute of Health, Bethesda, Maryland\nDrug resistance and disease progression are common in multiple myeloma (MM) patients, underscoring the need for new therapeutic combinations. […] We hypothesized that effective combinations would reduce MYC expression and enhance p16 activity. […] These preclinical data identify potentially useful drug combinations for evaluation in drug-resistant MM and reveal potential mechanisms of combined drug sensitivity.\nDescribed herein is the primary MIPE qHTS used to cherrypick compounds. Validated compounds were then further tested for potential synergistic activiy.\n[1] Peat TJ, Gaikwad SM, Dubois W, Gyabaah-Kessie N, Zhang S, Gorjifard S, Phyo Z, Andres M, Hughitt VK, Simpson RM, Miller MA, Girvin AT, Taylor A, Williams D, D'Antonio N, Zhang Y, Rajagopalan A, Flietner E, Wilson K, Zhang X, Shinn P, Klumpp-Thomas C, McKnight C, Itkin Z, Chen L, Kazandijian D, Zhang J, Michalowski AM, Simmons JK, Keats J, Thomas CJ, Mock BA. Drug combinations identified by high-throughput screening promote cell cycle transition and upregulate Smad pathways in myeloma. Cancer Lett. 2023 Aug 1;568:216284. doi: 10.1016/j.canlet.2023.216284. Epub 2023 Jun 24. PMID: 37356470; PMCID: PMC10408729.\nSEQUENCE No. (e.g., 1, 2, 3, etc.); […] (e.g., Cells, Incubation, Reagent, etc.); VALUE and DESCRIPTION.\n1; Cells; 5 uL; white, solid bottom 1536-well Greiner assay plate.\n2; Compounds; 23 nL; Kalypsis pin tool (Wako USA) equipped with a 1536-well pin head to transfer to the assay plates.\n3; Incubation; 48 hours; 37C incubation.\n4; Reagent;5uL; CellTiter Glo (Promega).\n5; Detector; 425V; Luminescence; Viewlux PerkinElmer.\nNOTES (numbers refer to Sequence numbers above)\n1. The cell-based screening methods employed in this study were like those previously published. Briefly, the corresponding myeloma cell lines were screened in 1,536-well plates with 500 cells, 5-uL per well for inhibition of cell viability (assessed by measuring ATP levels with CellTiterGlo).\n2. NCATS MIPE 4.0 library of approved and investigational drugs were added using the Kalypsis pin tool. Wells treated with DMSO only for 100% viability and media only for 0% viability were used as controls.\n3. The assay plates were covered and incubated for 48 hours in a 37C, 5% CO2 incubator with controlled humidity.\n4. After 48 hours, CellTilter-GloTM luminescent substrate mix (Promega) reagent was added to the assay plate and plates we incubated for 5 min at room temperature.\n5. Signal was measured as median relative luminescence units on a ViewLux (PerkinElmer) multiplate reader.\n[1] Heske CM, Davis MI, Baumgart JT, Wilson K, Gormally MV, Chen L, Zhang X, Ceribelli M, Duveau DY, Guha R, Ferrer M, Arnaldez FI, Ji J, Tran HL, Zhang Y, Mendoza A, Helman LJ, Thomas CJ. Matrix Screen Identifies Synergistic Combination of PARP Inhibitors and Nicotinamide Phosphoribosyltransferase (NAMPT) Inhibitors in Ewing Sarcoma. Clin Cancer Res. 2017 Dec 1;23(23):7301-7311. doi: 10.1158/1078-0432.CCR-17-1121. Epub 2017 Sep 12. PMID: 28899971; PMCID: PMC6636827.", "values": [
      {"smiles": "O=C(O)CCCCC(CCSCc1ccccc1)SCc1ccccc1", "note": "(stereo not drawn)", "Potency": "inconclusive: 26.4 µM [cytotoxic, single point]"},
      {"smiles": "CO[C@@H]1[C@H](N(C)C(=O)c2ccccc2)C[C@H]2O[C@]1(C)n1c3ccccc3c3c4c(c5c6ccccc6n2c5c31)C(=O)NC4", "Potency": "inconclusive: 1.32 µM [cytotoxic, full curve]"},
      {"smiles": "C[C@@H]1O[C@@H](O[C@H]2CC[C@@]3(C)[C@H](CC[C@@H]4[C@H]3C[C@@H](O)[C@]3(C)[C@@H](C5=CC(=O)OC5)CC[C@]43O)C2)C[C@H](O)[C@@H]1O[C@H]1C[C@H](O)[C@H](O[C@H]2C[C@H](O)[C@@H](O)[C@@H](C)O2)[C@H](C)O1", "note": "(stereo in doubt)", "Potency": "active: 0.108 µM"},
      {"smiles": "Nc1ccn(C[C@@H](CO)OCP(=O)(O)O)c(=O)n1", "Potency": "inconclusive: 0.002 µM [rising, full curve, poor fit]"},
      {"smiles": "CC(=O)N[C@H]1[C@@H]([C@H](O)[C@H](O)CO)OC(C(=O)O)=C[C@@H]1N=C(N)N", "Potency": "inactive"},
      {"smiles": "CC(C)OC(=O)C(C)(C)Oc1ccc(C(=O)c2ccc(Cl)cc2)cc1", "Potency": "inconclusive: 0.0118 µM [rising, full curve, poor fit]"},
      {"smiles": "N[C@@H]1CONC1=O", "Potency": "inconclusive: 20.9 µM [cytotoxic, single point]"},
      {"smiles": "CN1c2cc(O)c(N=NC(N)=O)cc2CC1S(=O)(=O)O", "note": "(stereo not drawn)", "Potency": "inactive"},
      {"smiles": "Cc1onc(-c2ccccc2Cl)c1C(=O)N[C@@H]1C(=O)N2[C@@H]1SC(C)(C)[C@@H]2C(=O)O", "Potency": "inactive"},
      {"smiles": "CCC(C)(Oc1ccc(C2(c3ccc(OC(C)(CC)C(=O)O)cc3)CCCCC2)cc1)C(=O)O", "note": "(stereo not drawn)", "Potency": "inconclusive: 0.0037 µM [rising, full curve, poor fit]"},
      {"smiles": "COc1c(N2C[C@@H]3CCCN[C@H]3C2)c(F)cc2c(=O)c(C(=O)O)cn(C3CC3)c12", "Potency": "inactive"},
      {"smiles": "CCCCNc1cc(C(=O)O)cc(S(N)(=O)=O)c1Oc1ccccc1", "Potency": "inactive"},
      {"smiles": "C=C(C)[C@@H]1CC[C@]2(C(=O)O)CC[C@]3(C)[C@H](CC[C@@H]4[C@@]5(C)CC[C@H](O)C(C)(C)[C@@H]5CC[C@]43C)[C@@H]12", "Potency": "inconclusive: 11.8 µM [cytotoxic, single point]"},
      {"smiles": "COc1cc([C@@H]2c3cc4c(cc3[C@@H](O[C@@H]3O[C@@H]5CO[C@@H](C)O[C@@H]5[C@H](O)[C@@H]3O)[C@H]3COC(=O)[C@H]23)OCO4)cc(OC)c1O", "Potency": "inconclusive: 1.18 µM [cytotoxic, full curve]"},
      {"smiles": "CC(C)(C)C(=O)OCOP(=O)(COCCn1cnc2c(N)ncnc21)OCOC(=O)C(C)(C)C", "Potency": "inconclusive: 0.833 µM [cytotoxic, full curve]"},
      {"smiles": "Cc1cn2cc(C(=O)N(C)CCO)cc(N[C@@H]3CCOc4cccc(C)c43)c2n1", "Potency": "inconclusive: 18.7 µM [cytotoxic, partial curve]"},
      {"smiles": "O=C(O)CO.[NH2-].[NH2-].[Pt+2]", "Potency": "inactive"},
      {"smiles": "CCCCCCCCCCCCc1ccc(S(=O)(=O)Nc2nncs2)cc1", "Potency": "inactive"},
      {"smiles": "CCN1CCN(C(=O)N[C@H](C(=O)N[C@@H]2C(=O)N3C(C(=O)O)=C(CSc4nnnn4C)CS[C@@H]23)c2ccc(O)cc2)C(=O)C1=O", "Potency": "inconclusive: 0.0009 µM"},
      {"smiles": "OC(CCN1CCCCC1)(c1ccccc1)C1CC2C=CC1C2", "note": "(stereo not drawn)", "Potency": "inactive"},
      {"smiles": "COc1cc(NS(=O)(=O)c2ccc(N)cc2)nc(OC)n1", "Potency": "inactive"},
      {"smiles": "COc1ccc([C@@H]2CNC(=O)C2)cc1OC1CCCC1", "Potency": "active: 1.48 µM"},
      {"smiles": "Nc1[nH]c(=O)ncc1F", "Potency": "inconclusive: 29.6 µM [cytotoxic, single point]"}
    ]}
  ]
}
